# Data as given in the supplement of paper PMC11438910.
# The list shows a part of the results. Only a few entries rise above the background.
# Key:
# Test in all cases: fluorescence intensity of antibody binding to polysaccharide-coupled beads; higher = stronger binding
# [1] = target: pneumococcal polysaccharide Pn16F
# [2] = target: pneumococcal polysaccharide Pn17A
# [3] = target: pneumococcal polysaccharide Pn17F
# [4] = target: pneumococcal polysaccharide Pn18A
# [5] = target: pneumococcal polysaccharide Pn18B
# [6] = target: pneumococcal polysaccharide Pn18C
# [7] = target: pneumococcal polysaccharide Pn18F
# [8] = target: pneumococcal polysaccharide Pn19A
# [9] = target: pneumococcal polysaccharide Pn19B
# [10] = target: pneumococcal polysaccharide Pn19C
# [11] = target: pneumococcal polysaccharide Pn19F
# [12] = target: pneumococcal polysaccharide Pn2
# [13] = target: pneumococcal polysaccharide Pn20A
# [14] = target: pneumococcal polysaccharide Pn20B
# [15] = target: pneumococcal polysaccharide Pn21
# [16] = target: pneumococcal polysaccharide Pn22A
# [17] = target: pneumococcal polysaccharide Pn22F
# [18] = target: pneumococcal polysaccharide Pn23A
# [19] = target: pneumococcal polysaccharide Pn23B
# [20] = target: pneumococcal polysaccharide Pn23F
# [21] = target: pneumococcal polysaccharide Pn24A
# [22] = target: pneumococcal polysaccharide Pn24B
# [23] = target: pneumococcal polysaccharide Pn24F
# [24] = antibody concentration 81.7561 ng/mL
# [25] = antibody concentration 437.17 ng/mL
# [26] = antibody concentration 2337.65 ng/mL
# [27] = antibody concentration 12500 ng/mL
# [28] = antibody concentration 0.1 ng/mL
# [29] = antibody concentration 0.534724 ng/mL
# [30] = antibody concentration 2.8593 ng/mL
# [31] = antibody concentration 15.2894 ng/mL
binder,measurement,setting,value
3S41.2 (protein) chain 1: EVQLVESGGGLVQPGGSLRLSCATSGFTFRNYWMYWFRQAPGKGLDWVSSISDSSSNTFYSDSVKGRFTISRDNAKNTLYLQMNSLRAEDTAVYYCARRPIAAATGVYWYFDLWGPGTPITVSS chain 2: QAALTQPPSMSGSPGQSVTISCTGTSSDIGGYNRVSWYQQYPGKAPKLMIYEVSKRPSGVSDRFSGSKSGNTAALTISGLQAADEADYYCSSYAGSYTFVLFGGGTRLTVL,fluorescence intensity,[1]; [24],26 MFI
same,fluorescence intensity,[1]; [25],26.5 MFI
same,fluorescence intensity,[1]; [26],30.5 MFI
same,fluorescence intensity,[1]; [27],44.5 MFI
same,fluorescence intensity,[2]; [28],21.2 MFI
same,fluorescence intensity,[2]; [29],21 MFI
same,fluorescence intensity,[2]; [30],20.5 MFI
same,fluorescence intensity,[2]; [31],21 MFI
same,fluorescence intensity,[2]; [24],21.5 MFI
same,fluorescence intensity,[2]; [25],21 MFI
same,fluorescence intensity,[2]; [26],23.2 MFI
same,fluorescence intensity,[2]; [27],30.5 MFI
same,fluorescence intensity,[3]; [28],26.5 MFI
same,fluorescence intensity,[3]; [29],26 MFI
same,fluorescence intensity,[3]; [30],26 MFI
same,fluorescence intensity,[3]; [31],27.5 MFI
same,fluorescence intensity,[3]; [24],26.5 MFI
same,fluorescence intensity,[3]; [25],27.5 MFI
same,fluorescence intensity,[3]; [26],28 MFI
same,fluorescence intensity,[3]; [27],33.5 MFI
same,fluorescence intensity,[4]; [28],24.5 MFI
same,fluorescence intensity,[4]; [29],23.5 MFI
same,fluorescence intensity,[4]; [30],25.5 MFI
same,fluorescence intensity,[4]; [31],24.5 MFI
same,fluorescence intensity,[4]; [24],24 MFI
same,fluorescence intensity,[4]; [25],24.5 MFI
same,fluorescence intensity,[4]; [26],26.5 MFI
same,fluorescence intensity,[4]; [27],36.5 MFI
same,fluorescence intensity,[5]; [28],30.5 MFI
same,fluorescence intensity,[5]; [29],30 MFI
same,fluorescence intensity,[5]; [30],30 MFI
same,fluorescence intensity,[5]; [31],30.2 MFI
same,fluorescence intensity,[5]; [24],30 MFI
same,fluorescence intensity,[5]; [25],32.5 MFI
same,fluorescence intensity,[5]; [26],37 MFI
same,fluorescence intensity,[5]; [27],53.5 MFI
same,fluorescence intensity,[6]; [28],20 MFI
same,fluorescence intensity,[6]; [29],18 MFI
same,fluorescence intensity,[6]; [30],17.5 MFI
same,fluorescence intensity,[6]; [31],19.5 MFI
same,fluorescence intensity,[6]; [24],19 MFI
same,fluorescence intensity,[6]; [25],21.2 MFI
same,fluorescence intensity,[6]; [26],27.2 MFI
same,fluorescence intensity,[6]; [27],46.2 MFI
same,fluorescence intensity,[7]; [28],24 MFI
same,fluorescence intensity,[7]; [29],22 MFI
same,fluorescence intensity,[7]; [30],22 MFI
same,fluorescence intensity,[7]; [31],22.8 MFI
same,fluorescence intensity,[7]; [24],23 MFI
same,fluorescence intensity,[7]; [25],25.5 MFI
same,fluorescence intensity,[7]; [26],31.5 MFI
same,fluorescence intensity,[7]; [27],49 MFI
same,fluorescence intensity,[8]; [28],19 MFI
same,fluorescence intensity,[8]; [29],19 MFI
same,fluorescence intensity,[8]; [30],19 MFI
same,fluorescence intensity,[8]; [31],18 MFI
same,fluorescence intensity,[8]; [24],19 MFI
same,fluorescence intensity,[8]; [25],20 MFI
same,fluorescence intensity,[8]; [26],25 MFI
same,fluorescence intensity,[8]; [27],40.5 MFI
same,fluorescence intensity,[9]; [28],28 MFI
same,fluorescence intensity,[9]; [29],30.5 MFI
same,fluorescence intensity,[9]; [30],31 MFI
same,fluorescence intensity,[9]; [31],30 MFI
same,fluorescence intensity,[9]; [24],29.8 MFI
same,fluorescence intensity,[9]; [25],33.2 MFI
same,fluorescence intensity,[9]; [26],84.8 MFI
same,fluorescence intensity,[9]; [27],506 MFI
same,fluorescence intensity,[10]; [28],25.5 MFI
same,fluorescence intensity,[10]; [29],26.5 MFI
same,fluorescence intensity,[10]; [30],25.5 MFI
same,fluorescence intensity,[10]; [31],26 MFI
same,fluorescence intensity,[10]; [24],26.5 MFI
same,fluorescence intensity,[10]; [25],28.8 MFI
same,fluorescence intensity,[10]; [26],58.5 MFI
same,fluorescence intensity,[10]; [27],302 MFI
same,fluorescence intensity,[11]; [28],24.5 MFI
same,fluorescence intensity,[11]; [29],25.5 MFI
same,fluorescence intensity,[11]; [30],25 MFI
same,fluorescence intensity,[11]; [31],25.5 MFI
same,fluorescence intensity,[11]; [24],27 MFI
same,fluorescence intensity,[11]; [25],28.5 MFI
same,fluorescence intensity,[11]; [26],38.5 MFI
same,fluorescence intensity,[11]; [27],59.5 MFI
same,fluorescence intensity,[12]; [28],20 MFI
same,fluorescence intensity,[12]; [29],20.8 MFI
same,fluorescence intensity,[12]; [30],19.5 MFI
same,fluorescence intensity,[12]; [31],19 MFI
same,fluorescence intensity,[12]; [24],21 MFI
same,fluorescence intensity,[12]; [25],21 MFI
same,fluorescence intensity,[12]; [26],25.5 MFI
same,fluorescence intensity,[12]; [27],36 MFI
same,fluorescence intensity,[13]; [28],23 MFI
same,fluorescence intensity,[13]; [29],22.2 MFI
same,fluorescence intensity,[13]; [30],22 MFI
same,fluorescence intensity,[13]; [31],24 MFI
same,fluorescence intensity,[13]; [24],23 MFI
same,fluorescence intensity,[13]; [25],26 MFI
same,fluorescence intensity,[13]; [26],55.5 MFI
same,fluorescence intensity,[13]; [27],324 MFI
same,fluorescence intensity,[14]; [28],25 MFI
same,fluorescence intensity,[14]; [29],23 MFI
same,fluorescence intensity,[14]; [30],24.8 MFI
same,fluorescence intensity,[14]; [31],23 MFI
same,fluorescence intensity,[14]; [24],24.5 MFI
same,fluorescence intensity,[14]; [25],24 MFI
same,fluorescence intensity,[14]; [26],30 MFI
same,fluorescence intensity,[14]; [27],64.5 MFI
same,fluorescence intensity,[15]; [28],18.5 MFI
same,fluorescence intensity,[15]; [29],19.2 MFI
same,fluorescence intensity,[15]; [30],19.8 MFI
same,fluorescence intensity,[15]; [31],19.2 MFI
same,fluorescence intensity,[15]; [24],19.5 MFI
same,fluorescence intensity,[15]; [25],18.8 MFI
same,fluorescence intensity,[15]; [26],23 MFI
same,fluorescence intensity,[15]; [27],29.5 MFI
same,fluorescence intensity,[16]; [28],21.5 MFI
same,fluorescence intensity,[16]; [29],20 MFI
same,fluorescence intensity,[16]; [30],21.5 MFI
same,fluorescence intensity,[16]; [31],19.5 MFI
same,fluorescence intensity,[16]; [24],21.5 MFI
same,fluorescence intensity,[16]; [25],22 MFI
same,fluorescence intensity,[16]; [26],35 MFI
same,fluorescence intensity,[16]; [27],116 MFI
same,fluorescence intensity,[17]; [28],28.2 MFI
same,fluorescence intensity,[17]; [29],33 MFI
same,fluorescence intensity,[17]; [30],30.8 MFI
same,fluorescence intensity,[17]; [31],32 MFI
same,fluorescence intensity,[17]; [24],30.5 MFI
same,fluorescence intensity,[17]; [25],31.5 MFI
same,fluorescence intensity,[17]; [26],35.5 MFI
same,fluorescence intensity,[17]; [27],52.5 MFI
same,fluorescence intensity,[18]; [28],25.5 MFI
same,fluorescence intensity,[18]; [29],26 MFI
same,fluorescence intensity,[18]; [30],23.5 MFI
same,fluorescence intensity,[18]; [31],26 MFI
same,fluorescence intensity,[18]; [24],28.5 MFI
same,fluorescence intensity,[18]; [25],36 MFI
same,fluorescence intensity,[18]; [26],53.5 MFI
same,fluorescence intensity,[18]; [27],106 MFI
same,fluorescence intensity,[19]; [28],29.5 MFI
same,fluorescence intensity,[19]; [29],29.5 MFI
same,fluorescence intensity,[19]; [30],31.5 MFI
same,fluorescence intensity,[19]; [31],28.8 MFI
same,fluorescence intensity,[19]; [24],31 MFI
same,fluorescence intensity,[19]; [25],31.8 MFI
same,fluorescence intensity,[19]; [26],35.5 MFI
same,fluorescence intensity,[19]; [27],47 MFI
same,fluorescence intensity,[20]; [28],18 MFI
same,fluorescence intensity,[20]; [29],18.5 MFI
same,fluorescence intensity,[20]; [30],19 MFI
same,fluorescence intensity,[20]; [31],17.2 MFI
same,fluorescence intensity,[20]; [24],16.5 MFI
same,fluorescence intensity,[20]; [25],21 MFI
same,fluorescence intensity,[20]; [26],26.8 MFI
same,fluorescence intensity,[20]; [27],38.5 MFI
same,fluorescence intensity,[21]; [28],16 MFI
same,fluorescence intensity,[21]; [29],15.2 MFI
same,fluorescence intensity,[21]; [30],15 MFI
same,fluorescence intensity,[21]; [31],15 MFI
same,fluorescence intensity,[21]; [24],16.5 MFI
same,fluorescence intensity,[21]; [25],16.5 MFI
same,fluorescence intensity,[21]; [26],19 MFI
same,fluorescence intensity,[21]; [27],34.5 MFI
same,fluorescence intensity,[22]; [28],17.2 MFI
same,fluorescence intensity,[22]; [29],17 MFI
same,fluorescence intensity,[22]; [30],18.5 MFI
same,fluorescence intensity,[22]; [31],17.5 MFI
same,fluorescence intensity,[22]; [24],18.5 MFI
same,fluorescence intensity,[22]; [25],20 MFI
same,fluorescence intensity,[22]; [26],28.2 MFI
same,fluorescence intensity,[22]; [27],69 MFI
same,fluorescence intensity,[23]; [28],18.2 MFI
same,fluorescence intensity,[23]; [29],17 MFI
same,fluorescence intensity,[23]; [30],17 MFI
same,fluorescence intensity,[23]; [31],18 MFI
same,fluorescence intensity,[23]; [24],19 MFI
same,fluorescence intensity,[23]; [25],23.5 MFI
same,fluorescence intensity,[23]; [26],31 MFI
same,fluorescence intensity,[23]; [27],52 MFI

# Some of the entries so far, with bars between the fields:
binder | measurement | setting | value
3S41.2 (protein) chain 1: EVQLVESGGGLVQPGGSLRLSCATSGFTFRNYWMYWFRQAPGKGLDWVSSISDSSSNTFYSDSVKGRFTISRDNAKNTLYLQMNSLRAEDTAVYYCARRPIAAATGVYWYFDLWGPGTPITVSS chain 2: QAALTQPPSMSGSPGQSVTISCTGTSSDIGGYNRVSWYQQYPGKAPKLMIYEVSKRPSGVSDRFSGSKSGNTAALTISGLQAADEADYYCSSYAGSYTFVLFGGGTRLTVL | fluorescence intensity | [18]; [26] | 53.5 MFI
same | fluorescence intensity | [18]; [27] | 106 MFI
same | fluorescence intensity | [19]; [28] | 29.5 MFI
same | fluorescence intensity | [19]; [29] | 29.5 MFI
same | fluorescence intensity | [19]; [30] | 31.5 MFI
same | fluorescence intensity | [19]; [31] | 28.8 MFI
